The experiment addresses forkhead box protein O1 (FoxO1) (UniProt Q12778). The experiment can be described thus: co-IP; HEK293 cells transfected with Flag or Sirt6; 250 ug of lysate protein precleared with protein G-agarose, incubated with anti-FoxO1 overnight at 4 °C, then protein G-agarose at 4 °C for 2 h; blot probed for Sirt6.

By UniProt entry, the sequences of proteins in these tests, tags left out.
UniProt Q12778: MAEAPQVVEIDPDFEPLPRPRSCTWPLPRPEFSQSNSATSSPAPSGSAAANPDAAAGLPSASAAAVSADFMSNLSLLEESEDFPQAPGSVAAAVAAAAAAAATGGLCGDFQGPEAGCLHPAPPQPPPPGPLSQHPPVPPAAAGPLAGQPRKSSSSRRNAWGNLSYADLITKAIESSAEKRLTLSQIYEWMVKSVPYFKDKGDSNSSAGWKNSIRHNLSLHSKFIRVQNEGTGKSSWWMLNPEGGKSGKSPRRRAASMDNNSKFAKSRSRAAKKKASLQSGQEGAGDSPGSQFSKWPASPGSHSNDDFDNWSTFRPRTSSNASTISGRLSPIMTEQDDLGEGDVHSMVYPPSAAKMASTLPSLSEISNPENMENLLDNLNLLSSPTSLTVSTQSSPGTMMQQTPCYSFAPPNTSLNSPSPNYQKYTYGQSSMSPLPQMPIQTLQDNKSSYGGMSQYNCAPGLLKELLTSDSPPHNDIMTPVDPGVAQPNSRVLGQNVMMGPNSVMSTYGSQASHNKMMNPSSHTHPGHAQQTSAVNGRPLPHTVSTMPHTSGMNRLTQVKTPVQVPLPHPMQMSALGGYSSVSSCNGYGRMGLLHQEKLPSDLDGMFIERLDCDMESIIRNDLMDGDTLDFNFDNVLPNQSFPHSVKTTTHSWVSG
UniProt Q8N6T7: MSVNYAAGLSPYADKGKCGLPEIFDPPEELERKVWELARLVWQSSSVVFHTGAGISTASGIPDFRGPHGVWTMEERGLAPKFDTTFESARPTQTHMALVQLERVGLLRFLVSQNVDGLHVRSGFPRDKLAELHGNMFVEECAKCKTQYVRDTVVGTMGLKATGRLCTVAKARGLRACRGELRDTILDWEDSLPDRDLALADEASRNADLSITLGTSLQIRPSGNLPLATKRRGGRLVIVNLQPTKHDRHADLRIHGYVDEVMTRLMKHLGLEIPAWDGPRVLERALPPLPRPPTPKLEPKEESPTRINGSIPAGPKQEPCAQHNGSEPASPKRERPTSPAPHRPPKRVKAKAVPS

These are yes or no findings as the source states them, for the method shown. In cells and extracts the contact can be indirect. Some entries that bind do so weakly or less than the wild type.

Take “Sirtuin 6 (Flag-Sirt6) (from UniProt Q8N6T7 1-355) (enzyme)”: the binding result is recorded as “binds”.

(Values after article PMC4960548.)
